According to patent US20210261642A1, “SOLUBILITY OF GLP-1 PEPTIDE” (Novo Nordisk A/S, priority 2017, published 2021):
Further values from the same series stand in other lists.

Assay: Assay (I): Determination of Solubility (96-well plate, pH 3.0-11.0, organic solvent 0-70% w/w, UV absorption at 280 nm)
Format: physicochemical
Protocol: Assay (I): Determination of Solubility
96-Well Plate Preparation
96-well plates containing target peptide in a solid form were prepared in one of two ways:
Method 1 (evaporation): Addition of 100 μl stock solution of said peptide at a concentration of 4-6 mg/ml to each well of a 96-well half area plate (150 μl well size). Subsequently the solvent was evaporated by applying a vacuum until the solvent was completely removed.
Method 2 (precipitation): Addition of a certain volume of a stock solution of said peptide containing to each well of a 96-well half area plate followed by the addition of a certain volume of concentrated phosphoric acid to obtain a pH of 4.6 followed by addition of a certain volume of ethanol resulting in a final ethanol concentration of 20% v/v. Subsequently the plate was stored at 4° C. for 1 h and then centrifuged at 4,000 rpm for 20 min. Finally the supernatant was removed. The concentration of the stock solution was chosen in a way that the final amount of peptide after supernatant removal was >0.4 mg per well.
In both cases the stock solution was prepared by adding de-ionized water to a certain amount of powder of said peptide followed by a stepwise addition of small amounts of a concentrated sodium hydroxide solution until said peptide was completely in solution.
To determine solubility of a target peptide at different pH and organic solvent concentrations, two different buffer systems were used in independent experiments to cover the whole range from pH 3.0 to pH 11.0. Buffer system 1 covers pH 3.0-7.5 and buffer system 2 covers pH 7.5-11.0. For each buffer system 96 different solvent compositions were premixed in the following way: • 1. A low pH buffer (adjusted to either pH 3.0 or pH 7.5) and a high pH buffer (adjusted to either pH 7.5 or pH 11.0) were mixed at 8 different ratios to obtain values between pH 3.0 and pH 7.5 or pH 7.5 and pH 11.0, respectively. The total volume after mixing was 300 μl. • 2. 12 different amounts of organic solvent were then added to these buffers to obtain organic solvent (e.g. ethanol) concentrations between 0 and 70% w/w. • 3. Water was then added to obtain a total weight of 1.0 g of solvent in each well.
After preparing the 96 different solvent systems, 100 μl of each system was transferred to the 96-well plate containing the solid form of the target peptide (prepared as described in the section “96-well plate preparation”). The plate was then stored at a given temperature (between 5° C. and 70° C.) for a given time on a rotating shaker set to 400 rpm. At regular time intervals the plate was centrifuged (4,000 rpm for 10 min) and a 10 μl sample was taken from each well. The samples were then analysed by UV absorption at 280 nm for peptide quantification. Peptide concentration results are given as UV absorption at 280 nm of the sample subtracted UV absorption at 280 nm of a well comprising 10 μl water.
The buffers used were as follows: • Buffer system 1 (for the pH range from pH 3.0-7.5)
• Buffer system 2 (for the pH ranae from pH 7.5-11.0)
Solubility of liraglutide was determined using Assay (I) described herein. Liraglutide was prepared using Method 1 (evaporation) or Method 2 (precipitation) as described in subsection “96-well plate preparation”.

[1] = DMF 63.6% w/w, pH 10.5, RT, Method 1 (evaporation)
[2] = DMF 63.6% w/w, pH 11.0, RT, Method 1 (evaporation)
[3] = DMF 70.0% w/w, pH 3.1, RT, Method 1 (evaporation)
[4] = DMF 70.0% w/w, pH 4.8, RT, Method 1 (evaporation)
[5] = DMF 70.0% w/w, pH 5.8, RT, Method 1 (evaporation)
[6] = DMF 70.0% w/w, pH 6.3, RT, Method 1 (evaporation)
[7] = DMF 70.0% w/w, pH 6.7, RT, Method 1 (evaporation)
[8] = DMF 70.0% w/w, pH 6.9, RT, Method 1 (evaporation)
[9] = DMF 70.0% w/w, pH 7.2, RT, Method 1 (evaporation)
[10] = DMF 70.0% w/w, pH 7.5, RT, Method 1 (evaporation)
[11] = DMF 70.0% w/w, pH 8.0, RT, Method 1 (evaporation)
[12] = DMF 70.0% w/w, pH 8.5, RT, Method 1 (evaporation)
[13] = DMF 70.0% w/w, pH 9.0, RT, Method 1 (evaporation)
[14] = DMF 70.0% w/w, pH 9.5, RT, Method 1 (evaporation)
[15] = DMF 70.0% w/w, pH 10.0, RT, Method 1 (evaporation)
[16] = DMF 70.0% w/w, pH 10.5, RT, Method 1 (evaporation)
[17] = DMF 70.0% w/w, pH 11.0, RT, Method 1 (evaporation)
[18] = MeCN 0.0% w/w, pH 3.0, 5° C., Method 1
[19] = MeCN 0.0% w/w, pH 3.0, 70° C., Method 1
[20] = MeCN 0.0% w/w, pH 3.6, 5° C., Method 1
[21] = MeCN 0.0% w/w, pH 3.6, 70° C., Method 1
[22] = MeCN 0.0% w/w, pH 4.3, 70° C., Method 1
[23] = MeCN 0.0% w/w, pH 4.9, 70° C., Method 1
[24] = MeCN 0.0% w/w, pH 4.9, RT, Method 1
[25] = MeCN 0.0% w/w, pH 5.6, 70° C., Method 1
[26] = MeCN 0.0% w/w, pH 5.6, RT, Method 1
[27] = MeCN 0.0% w/w, pH 6.2, 70° C., Method 1
[28] = MeCN 0.0% w/w, pH 6.2, RT, Method 1
[29] = MeCN 0.0% w/w, pH 6.9, 70° C., Method 1
[30] = MeCN 0.0% w/w, pH 6.9, RT, Method 1
[31] = MeCN 0.0% w/w, pH 7.5, 70° C., Method 1
[32] = MeCN 0.0% w/w, pH 7.5, RT, Method 1
[33] = MeCN 0.0% w/w, pH 8.0, 70° C., Method 1
[34] = MeCN 0.0% w/w, pH 8.0, RT, Method 1
[35] = MeCN 0.0% w/w, pH 8.5, 70° C., Method 1
[36] = MeCN 0.0% w/w, pH 8.5, RT, Method 1
[37] = MeCN 0.0% w/w, pH 9.0, 70° C., Method 1
[38] = MeCN 0.0% w/w, pH 9.0, RT, Method 1
[39] = MeCN 0.0% w/w, pH 9.5, 70° C., Method 1
[40] = MeCN 0.0% w/w, pH 9.5, RT, Method 1
[41] = MeCN 0.0% w/w, pH 10.0, 70° C., Method 1
[42] = MeCN 0.0% w/w, pH 10.0, RT, Method 1

CCCCCCCCCCCCCCCC(=O)N[C@@H](CCC(=O)NCCCC[C@H](NC(=O)[C@H](C)NC(=O)[C@H](C)NC(=O)[C@H](CCC(N)=O)NC(=O)CNC(=O)[C@H](CCC(=O)O)NC(=O)[C@H](CC(C)C)NC(=O)[C@H](Cc1ccc(O)cc1)NC(=O)[C@H](CO)NC(=O)[C@H](CO)NC(=O)[C@@H](NC(=O)[C@H](CC(=O)O)NC(=O)[C@H](CO)NC(=O)[C@@H](NC(=O)[C@H](Cc1ccccc1)NC(=O)[C@@H](NC(=O)CNC(=O)[C@H](CCC(=O)O)NC(=O)[C@H](C)NC(=O)[C@@H](N)Cc1cnc[nH]1)[C@@H](C)O)[C@@H](C)O)C(C)C)C(=O)N[C@@H](CCC(=O)O)C(=O)N[C@@H](Cc1ccccc1)C(=O)N[C@H](C(=O)N[C@@H](C)C(=O)N[C@@H](Cc1c[nH]c2ccccc12)C(=O)N[C@@H](CC(C)C)C(=O)N[C@H](C(=O)N[C@@H](CCCNC(=N)N)C(=O)NCC(=O)N[C@@H](CCCNC(=N)N)C(=O)NCC(=O)O)C(C)C)[C@@H](C)CC)C(=O)O [liraglutide, Arg34,Lys26-(N-epsilon-(gamma-L-glutamyl(N-alfa-hexadecanoyl)))-GLP-1(7-37)]
Peptide concentration after 180 min (DMF 63.6% w/w, pH 10.0, RT, Method 1 (evaporation)): >4.0 mg/mL
Peptide concentration after 5 min [1]: 3.5 mg/mL
Peptide concentration after 180 min [1]: >4.0 mg/mL
Peptide concentration after 5 min [2]: 1.3 mg/mL
Peptide concentration after 180 min [2]: >4.0 mg/mL
Peptide concentration after 5 min [3]: 0.3 mg/mL
Peptide concentration after 180 min [3]: 0.3 mg/mL
Peptide concentration after 24 h [3]: 0.4 mg/mL
Peptide concentration after 5 min [4]: 0.2 mg/mL
Peptide concentration after 180 min [4]: 0.2 mg/mL
Peptide concentration after 24 h [4]: 0.3 mg/mL
Peptide concentration after 5 min [5]: 0.2 mg/mL
Peptide concentration after 180 min [5]: 0.3 mg/mL
Peptide concentration after 24 h [5]: 0.4 mg/mL
Peptide concentration after 5 min [6]: 0.2 mg/mL
Peptide concentration after 180 min [6]: 0.3 mg/mL
Peptide concentration after 24 h [6]: 0.3 mg/mL
Peptide concentration after 5 min [7]: 0.5 mg/mL
Peptide concentration after 180 min [7]: 0.3 mg/mL
Peptide concentration after 24 h [7]: 0.3 mg/mL
Peptide concentration after 5 min [8]: 0.5 mg/mL
Peptide concentration after 180 min [8]: 0.4 mg/mL
Peptide concentration after 24 h [8]: 0.4 mg/mL
Peptide concentration after 5 min [9]: 0.3 mg/mL
Peptide concentration after 180 min [9]: 0.4 mg/mL
Peptide concentration after 24 h [9]: 0.4 mg/mL
Peptide concentration after 5 min [10]: 1.5 mg/mL
Peptide concentration after 180 min [10]: >4.0 mg/mL
Peptide concentration after 5 min [11]: 1.2 mg/mL
Peptide concentration after 180 min [11]: >4.0 mg/mL
Peptide concentration after 5 min [12]: 2.9 mg/mL
Peptide concentration after 180 min [12]: >4.0 mg/mL
Peptide concentration after 5 min [13]: 2.6 mg/mL
Peptide concentration after 180 min [13]: >4.0 mg/mL
Peptide concentration after 5 min [14]: 3.2 mg/mL
Peptide concentration after 180 min [14]: >4.0 mg/mL
Peptide concentration after 5 min [15]: 3.4 mg/mL
Peptide concentration after 180 min [15]: >4.0 mg/mL
Peptide concentration after 5 min [16]: 3.5 mg/mL
Peptide concentration after 180 min [16]: >4.0 mg/mL
Peptide concentration after 5 min [17]: 1.1 mg/mL
Peptide concentration after 180 min [17]: >4.0 mg/mL
Peptide concentration after 5 min [18]: 0.1 mg/mL
Peptide concentration after 180 min [18]: 0.1 mg/mL
Peptide concentration after 24 h [18]: 0.2 mg/mL
Peptide concentration after 5 min [19]: 1.0 mg/mL
Peptide concentration after 180 min [19]: 1.5 mg/mL
Peptide concentration after 5 min [20]: 0.0 mg/mL
Peptide concentration after 180 min [20]: 0.1 mg/mL
Peptide concentration after 24 h [20]: 0.1 mg/mL
Peptide concentration after 5 min [21]: 0.0 mg/mL
Peptide concentration after 180 min [21]: 0.2 mg/mL
Peptide concentration after 5 min [22]: 0.1 mg/mL
Peptide concentration after 180 min [22]: 0.1 mg/mL
Peptide concentration after 5 min [23]: 0.9 mg/mL
Peptide concentration after 180 min [23]: 0.0 mg/mL
Peptide concentration after 5 min [24]: 0.3 mg/mL
Peptide concentration after 180 min [24]: 0.1 mg/mL
Peptide concentration after 5 min [25]: 0.3 mg/mL
Peptide concentration after 180 min [25]: 1.7 mg/mL
Peptide concentration after 5 min [26]: 0.2 mg/mL
Peptide concentration after 180 min [26]: 0.1 mg/mL
Peptide concentration after 5 min [27]: 0.8 mg/mL
Peptide concentration after 180 min [27]: >4.0 mg/mL
Peptide concentration after 5 min [28]: 0.1 mg/mL
Peptide concentration after 180 min [28]: 0.4 mg/mL
Peptide concentration after 5 min [29]: 2.0 mg/mL
Peptide concentration after 180 min [29]: >4.0 mg/mL
Peptide concentration after 5 min [30]: 0.6 mg/mL
Peptide concentration after 180 min [30]: 3.1 mg/mL
Peptide concentration after 5 min [31]: 1.8 mg/mL
Peptide concentration after 180 min [31]: >4.0 mg/mL
Peptide concentration after 5 min [32]: 0.8 mg/mL
Peptide concentration after 180 min [32]: 3.0 mg/mL
Peptide concentration after 5 min [33]: 2.2 mg/mL
Peptide concentration after 180 min [33]: >4.0 mg/mL
Peptide concentration after 5 min [34]: 0.6 mg/mL
Peptide concentration after 180 min [34]: 2.5 mg/mL
Peptide concentration after 24 h [34]: >4.0 mg/mL
Peptide concentration after 5 min [35]: 1.9 mg/mL
Peptide concentration after 180 min [35]: >4.0 mg/mL
Peptide concentration after 5 min [36]: 0.6 mg/mL
Peptide concentration after 180 min [36]: 3.5 mg/mL
Peptide concentration after 24 h [36]: >4.0 mg/mL
Peptide concentration after 5 min [37]: 2.1 mg/mL
Peptide concentration after 180 min [37]: >4.0 mg/mL
Peptide concentration after 5 min [38]: 0.7 mg/mL
Peptide concentration after 180 min [38]: 2.9 mg/mL
Peptide concentration after 24 h [38]: >4.0 mg/mL
Peptide concentration after 5 min [39]: 2.3 mg/mL
Peptide concentration after 180 min [39]: >4.0 mg/mL
Peptide concentration after 5 min [40]: 0.8 mg/mL
Peptide concentration after 180 min [40]: 2.8 mg/mL
Peptide concentration after 24 h [40]: >4.0 mg/mL
Peptide concentration after 5 min [41]: 2.2 mg/mL
Peptide concentration after 180 min [41]: >4.0 mg/mL
Peptide concentration after 5 min [42]: 0.9 mg/mL
Peptide concentration after 180 min [42]: 3.4 mg/mL
Peptide concentration after 24 h [42]: >4.0 mg/mL
